PubChem BioAssay AID1259283 | Sanger Institute | 2017
Screen: 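Kinases whose silencing adds to targeted drugs in killing colon cancer cells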 (primary screen). System: HT115 colorectal cancer cells. Reagents: siRNA pool against human genes. Challenge: anchor drug given one day after siRNA: BYL719 at 1 µM, cetuximab at 5 µg/ml, trametinib at 10 nM, or DMSO vehicle alone. Measurement: 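Per-drug synergy scores plus replicate-mean viability relative to non-targeting pool #2 wells, also expressed as a robust z-score based on control wells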. Scale: robust z-score, knock-down alone: higher = more viable cells after knock-down; viability, DMSO vs non-targeting control: higher = more viable cells; synergy score with BYL719 and synergy score with cetuximab and synergy score with trametinib: higher = stronger synergy with drug (synthetic lethal). Call rule: 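a gene counts as essential when its robust z-score with knock-down alone is below -3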. Calls: active = essential (z below -3, no drug); inactive = no change without drug.
This is an unselected part of 794 reagents tested. 14 of them (1.8%) count as active. 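Calls reflect only viability loss without drug; drug synergy does not enter the call.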 Viability is capped at 1. Not stated in the record: the amount of reagent, the time to read-out.

| gene | robust z-score, knock-down alone | viability, DMSO vs non-targeting control (fraction of control) | synergy score with BYL719 | synergy score with cetuximab | synergy score with trametinib | Call |
| --- | --- | --- | --- | --- | --- | --- |
| CSNK1E | 0.789 | 1 | 0.0574 | 0.0271 | 0.124 | inactive |
| TAOK2 | 0.164 | 0.942 | -0.00523 | -0.0987 | -0.0775 | inactive |
| AKT2 | 0.584 | 0.981 | -0.00133 | 0.0154 | 0.0821 | inactive |
| PTGS1 | -0.64 | 0.868 | 0.0493 | 0.127 | 0.0203 | inactive |
| ITPKA | -0.762 | 0.857 | -0.0755 | 0.0173 | 0.0868 | inactive |
| PMVK | -0.676 | 0.865 | -0.128 | -0.0431 | -0.145 | inactive |
| TSSK4 | -0.142 | 0.914 | -0.107 | -0.0859 | 0.112 | inactive |
| PIKFYVE | 0.789 | 1 | -0.00953 | -0.00323 | 0.0569 | inactive |
| STK32C | 0.789 | 1 | 0.00617 | -0.0166 | -0.0127 | inactive |
| MAPKAPK5 | -0.851 | 0.848 | -0.0533 | -0.0984 | -0.137 | inactive |
| IRAK1 | -1.79 | 0.762 | 0.0383 | 0.0436 | 0.23 | inactive |
| MAP3K7 | 0.789 | 1 | 0.0457 | 0.22 | 0.275 | inactive |
| KSR1 | -3.99 | 0.558 | -0.0383 | 0.0834 | 0.03 | active |
| DLG3 | 0.789 | 1 | -0.0224 | 0.0573 | 0.0038 | inactive |
| TEK | 0.75 | 0.996 | -0.0259 | 0.0269 | 0.0879 | inactive |
| UCK2 | 0.789 | 1 | -0.0224 | 0.036 | 0.0721 | inactive |
| PCK1 | 0.277 | 0.953 | 0.105 | 0.0427 | 0.0174 | inactive |
| RPS6KA4 | -1.32 | 0.805 | -0.0604 | 0.056 | 0.286 | inactive |
| PHKG2 | 0.789 | 1 | 0.0313 | 0.0317 | 0.0469 | inactive |
| CSNK1G1 | 0.789 | 1 | 0.0829 | -0.0235 | 0.0973 | inactive |
| STAG2 | 0.0207 | 0.929 | 0.00631 | -0.00258 | 0.0632 | inactive |
| CAMKK1 | 0.397 | 0.964 | -0.0437 | -0.00998 | 0.149 | inactive |
| EIF2AK2 | 0.0437 | 0.931 | -0.0105 | -0.0442 | 0.029 | inactive |
| MAP2K7 | 0.767 | 0.998 | -0.0243 | 0.0733 | 0.112 | inactive |
| DCLK1 | 0.0721 | 0.934 | -0.000539 | 0.0221 | 0.05 | inactive |
| PXK | -0.205 | 0.908 | 0.0118 | -0.0865 | -0.0343 | inactive |
| LIMK1 | 0.645 | 0.987 | -0.00423 | -0.00134 | 0.183 | inactive |
| MARK2 | 0.21 | 0.947 | 0.019 | -0.0921 | 0.116 | inactive |
| EPHB6 | 0.789 | 1 | -0.0224 | -0.00108 | 0.124 | inactive |
| TRIB2 | -0.613 | 0.87 | 0.14 | 0.247 | 0.169 | inactive |
| ABL1 | 0.789 | 1 | -0.0224 | 0.0133 | 0.118 | inactive |
| IDH2 | 0.634 | 0.986 | -0.0341 | -0.00202 | -0.00215 | inactive |
| SLK | 0.789 | 1 | 0.0525 | -0.0435 | 0.108 | inactive |
| NME3 | 0.789 | 1 | 0.164 | 0.112 | 0.193 | inactive |
| ABL2 | 0.789 | 1 | 0.00955 | -0.0131 | 0.136 | inactive |
| DGKA | -0.342 | 0.895 | 0.0495 | 0.0929 | 0.126 | inactive |
